Results are given in words; binding and its absence hold for the method and conditions named. In cells and extracts the contact can be indirect. Some binding calls cover weakened binding; strength is not graded here.

By UniProt entry, the sequences of proteins in these tests, tags left out.
UniProt P61073: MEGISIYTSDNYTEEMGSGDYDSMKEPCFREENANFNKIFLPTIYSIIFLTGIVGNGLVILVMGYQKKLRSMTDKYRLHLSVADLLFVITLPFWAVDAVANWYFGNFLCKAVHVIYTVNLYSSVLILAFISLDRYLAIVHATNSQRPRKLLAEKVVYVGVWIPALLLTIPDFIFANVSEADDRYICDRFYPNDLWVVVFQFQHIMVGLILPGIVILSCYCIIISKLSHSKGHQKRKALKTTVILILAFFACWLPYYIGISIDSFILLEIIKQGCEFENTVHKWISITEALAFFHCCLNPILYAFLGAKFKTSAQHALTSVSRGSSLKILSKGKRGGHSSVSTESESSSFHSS

From article PMC5641084 come the findings set out here.

For the assay, the target named is T1, B7-H3 (B7 homologue 3, CD276) (human (endogenous in N87)) (UniProt Q5ZPR3).
T1 sequence: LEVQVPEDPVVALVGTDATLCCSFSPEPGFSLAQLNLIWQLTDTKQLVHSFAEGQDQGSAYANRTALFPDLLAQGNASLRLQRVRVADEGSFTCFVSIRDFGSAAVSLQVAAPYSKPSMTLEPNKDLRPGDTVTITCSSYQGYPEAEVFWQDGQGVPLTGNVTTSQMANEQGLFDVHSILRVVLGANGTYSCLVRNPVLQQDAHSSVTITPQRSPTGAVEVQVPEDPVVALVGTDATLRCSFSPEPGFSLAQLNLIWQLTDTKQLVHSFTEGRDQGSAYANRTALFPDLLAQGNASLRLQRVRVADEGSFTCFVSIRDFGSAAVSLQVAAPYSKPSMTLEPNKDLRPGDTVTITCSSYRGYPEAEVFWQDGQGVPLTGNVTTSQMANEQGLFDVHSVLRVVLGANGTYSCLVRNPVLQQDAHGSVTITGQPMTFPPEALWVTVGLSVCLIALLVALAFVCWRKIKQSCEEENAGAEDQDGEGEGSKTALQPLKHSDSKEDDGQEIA
The assay can be described thus: co-IP; lysate of LV-NC-infected N87 cells (100 mM KCl, 5 mM MgCl2, 10 mM HEPES pH 7.0, 0.5% NP-40, 1 mM DTT) on protein A/G beads with anti-B7-H3 antibody 4H7, 4°C for 6 h; immunoblot with B7-H3 or CXCR4 antibodies; controls: IgG or no antibody.

For the substance “CXCR4 (from UniProt P61073 1-352) (receptor)”, the binding result was “binds”.
